The experiment is filed under the species Cavia porcellus. Nature of the experiment: Single-point analysis using 5(10e-9) M concentration of the antagonist (pA2= -log([B]/concentration ratio-1); [B] =concentration of the antagonist). The class given is functional. The following applies: read-out: pA2 (converted). An outline of the steps:
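Ileal strip preparation with methysergide 10^-6 M present. Paired noncumulative 5-HT curves are run, with the antagonist at 5×10^-9 M added 30 min before the second curve. The concentration ratio is taken at the 5-HT level giving 50% of the control maximum in the ≥10^-6 M phase. Single-point pA2 = −log([B]/(CR−1)) (Furchgott).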

Regarding `CN1C2CCCC1CC(NC(=O)c1nn(C)c3ccccc13)C2` (stereo unspecified) [GRANISETRON], the Kb is 0.631 nM.
